Laboratory results published in patent US10227357B2, “Compounds and methods for kinase modulation, and indications therefor” (Plexxikon Inc., priority 2012, dated 2019).
Some results were stated once for a whole list of compounds, not compound by compound.

Protein sequences, listed by entry. Tags and fused reporters are not part of them.
UniProt P10721, whole entry D816V: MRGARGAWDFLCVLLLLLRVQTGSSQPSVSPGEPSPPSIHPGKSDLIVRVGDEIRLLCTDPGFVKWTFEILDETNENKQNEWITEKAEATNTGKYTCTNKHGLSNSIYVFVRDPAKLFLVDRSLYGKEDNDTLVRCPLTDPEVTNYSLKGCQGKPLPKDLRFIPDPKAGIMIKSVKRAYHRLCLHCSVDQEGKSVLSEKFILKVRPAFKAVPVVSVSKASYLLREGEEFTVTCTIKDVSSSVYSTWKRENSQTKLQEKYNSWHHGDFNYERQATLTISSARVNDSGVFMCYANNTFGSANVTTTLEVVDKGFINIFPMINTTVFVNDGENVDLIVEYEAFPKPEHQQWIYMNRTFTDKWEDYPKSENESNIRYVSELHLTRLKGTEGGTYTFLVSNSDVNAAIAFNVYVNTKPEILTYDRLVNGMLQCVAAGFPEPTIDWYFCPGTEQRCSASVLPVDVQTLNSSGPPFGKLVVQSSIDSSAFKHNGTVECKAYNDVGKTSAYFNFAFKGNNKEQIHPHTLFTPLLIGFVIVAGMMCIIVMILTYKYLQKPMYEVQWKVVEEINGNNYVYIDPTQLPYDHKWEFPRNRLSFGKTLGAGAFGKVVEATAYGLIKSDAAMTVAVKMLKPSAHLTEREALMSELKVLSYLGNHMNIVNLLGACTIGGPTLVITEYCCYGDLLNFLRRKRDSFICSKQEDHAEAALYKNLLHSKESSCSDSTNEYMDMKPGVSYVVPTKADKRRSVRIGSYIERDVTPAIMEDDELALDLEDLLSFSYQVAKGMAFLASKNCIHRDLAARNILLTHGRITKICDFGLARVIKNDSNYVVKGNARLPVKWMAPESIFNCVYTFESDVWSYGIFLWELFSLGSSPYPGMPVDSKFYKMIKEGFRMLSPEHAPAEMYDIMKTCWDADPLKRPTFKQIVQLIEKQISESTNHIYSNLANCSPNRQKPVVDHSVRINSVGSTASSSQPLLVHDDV

What follows are molecules tested against BaF3-FL KIT D816V cells (Homo sapiens, UniProt P10721, D816V, cells depend on it, form not given) (assay: Cell-based assay of c-Kit mutant kinase activity, BaF3-FL KIT D816V cell proliferation (ATPlite)). Conditions: in at least one of the c-kit cell assays described in Example 28 (BaF3-FL KIT D816V or BaF3-FL KIT V560G/D816V); read-out: IC50 (the source's name).

| Structure (SMILES) | GI50 |
| --- | --- |
| O=S(=O)(NC1CCN(c2ncnc3[nH]c(-c4ccc(F)cc4)cc23)CC1)c1cccc(F)c1 [P-0501, 3-fluoro-N-[1-[6-(4-fluorophenyl)-7H-pyrrolo[2,3-d]pyrimidin-4-yl]-4-piperidyl]benzenesulfonamide] | < 10 µM |
| COc1ccc(S(=O)(=O)NC2CCN(c3ncnc4[nH]c(-c5ccc(F)cc5)cc34)CC2)cc1 [P-0502, N-[1-[6-(4-fluorophenyl)-7H-pyrrolo[2,3-d]pyrimidin-4-yl]-4-piperidyl]-4-methoxy-benzenesulfonamide] | < 10 µM |
| C[C@H](NC(=O)NC1CCN(c2ncnc3[nH]c(-c4ccc(F)cc4)cc23)CC1)c1ccc(Cl)cc1 [P-0503, 1-[(1S)-1-(4-chlorophenyl)ethyl]-3-[1-[6-(4-fluorophenyl)-7H-pyrrolo[2,3-d]pyrimidin-4-yl]-4-piperidyl]urea] | < 10 µM |
| O=C(Nc1ccc(OC(F)(F)F)cc1)NC1CCN(c2ncnc3[nH]c(-c4ccc(F)cc4)cc23)CC1 [P-0504, 1-[1-[6-(4-fluorophenyl)-7H-pyrrolo[2,3-d]pyrimidin-4-yl]-4-piperidyl]-3-[4-(trifluoromethoxy)phenyl]urea] | < 10 µM |
| O=C(NCc1ccc(F)cc1)NC1CCN(c2ncnc3[nH]c(-c4ccc(F)cc4)cc23)CC1 [P-0505, 1-[(4-fluorophenyl)methyl]-3-[1-[6-(4-fluorophenyl)-7H-pyrrolo[2,3-d]pyrimidin-4-yl]-4-piperidyl]urea] | < 10 µM |
| CN(C)c1ccc(NC(=O)NC2CCN(c3ncnc4[nH]ccc34)CC2)cc1 [P-0506, 1-(4-dimethylaminophenyl)-3-[1-(7H-pyrrolo[2,3-d]pyrimidin-4-yl)-4-piperidyl]urea] | < 10 µM |
| Cc1nc(-c2cccc(NC(=O)NC3CCN(c4ncnc5[nH]ccc45)CC3)c2)no1 [P-0507, 1-[3-(5-methyl-1,2,4-oxadiazol-3-yl)phenyl]-3-[1-(7H-pyrrolo[2,3-d]pyrimidin-4-yl)-4-piperidyl]urea] | < 10 µM |
| O=C(Nc1cccnc1)NC1CCN(c2ncnc3[nH]ccc23)CC1 [P-0508, 1-(3-pyridyl)-3-[1-(7H-pyrrolo[2,3-d]pyrimidin-4-yl)-4-piperidyl]urea] | < 10 µM |
| O=C(NCc1ccc(F)cc1)NC1CCN(c2ncnc3[nH]ccc23)CC1 [P-0509, 1-[(4-fluorophenyl)methyl]-3-[1-(7H-pyrrolo[2,3-d]pyrimidin-4-yl)-4-piperidyl]urea] | < 10 µM |
| O=C(NCc1cccc(F)c1)NC1CCN(c2ncnc3[nH]ccc23)CC1 [P-0510, 1-[(3-fluorophenyl)methyl]-3-[1-(7H-pyrrolo[2,3-d]pyrimidin-4-yl)-4-piperidyl]urea] | < 10 µM |
| O=C(NCCc1ccc(F)cc1)NC1CCN(c2ncnc3[nH]ccc23)CC1 [P-0511, 1-[2-(4-fluorophenyl)ethyl]-3-[1-(7H-pyrrolo[2,3-d]pyrimidin-4-yl)-4-piperidyl]urea] | < 10 µM |
| O=C(Nc1ccc(F)c(Cl)c1)NC1CCN(c2ncnc3[nH]ccc23)CC1 [P-0512, 1-(3-chloro-4-fluoro-phenyl)-3-[1-(7H-pyrrolo[2,3-d]pyrimidin-4-yl)-4-piperidyl]urea] | < 10 µM |
| O=C(Nc1ccc(OC(F)(F)F)cc1)NC1CCN(c2ncnc3[nH]ccc23)CC1 [P-0513, 1-[1-(7H-pyrrolo[2,3-d]pyrimidin-4-yl)-4-piperidyl]-3-[4-(trifluoromethoxy)phenyl]urea] | < 10 µM |
| O=C(Nc1ccc(C(F)(F)F)cc1)NC1CCN(c2ncnc3[nH]ccc23)CC1 [P-0514, 1-[1-(7H-pyrrolo[2,3-d]pyrimidin-4-yl)-4-piperidyl]-3-[4-(trifluoromethyl)phenyl]urea] | < 10 µM |
| O=C(Nc1cccc(C(F)(F)F)c1)NC1CCN(c2ncnc3[nH]ccc23)CC1 [P-0515, 1-[1-(7H-pyrrolo[2,3-d]pyrimidin-4-yl)-4-piperidyl]-3-[3-(trifluoromethyl)phenyl]urea] | < 10 µM |
| O=C(Nc1cccc(Cl)c1)NC1CCN(c2ncnc3[nH]ccc23)CC1 [P-0516, 1-(3-chlorophenyl)-3-[1-(7H-pyrrolo[2,3-d]pyrimidin-4-yl)-4-piperidyl]urea] | < 10 µM |
| COc1ccc(CCNC(=O)NC2CCN(c3ncnc4[nH]ccc34)CC2)cc1 [P-0517, 1-[2-(4-methoxyphenyl)ethyl]-3-[1-(7H-pyrrolo[2,3-d]pyrimidin-4-yl)-4-piperidyl]urea] | < 10 µM |
| O=C(NCc1ccc(Cl)cc1)NC1CCN(c2ncnc3[nH]ccc23)CC1 [P-0518, 1-[(4-chlorophenyl)methyl]-3-[1-(7H-pyrrolo[2,3-d]pyrimidin-4-yl)-4-piperidyl]urea] | < 10 µM |
| O=C(Nc1ccc(Cl)cc1)NC1CCN(c2ncnc3[nH]ccc23)CC1 [P-0519, 1-(4-chlorophenyl)-3-[1-(7H-pyrrolo[2,3-d]pyrimidin-4-yl)-4-piperidyl]urea] | < 10 µM |
| N#Cc1ccc(NC(=O)NC2CCN(c3ncnc4[nH]ccc34)CC2)cc1 [P-0520, 1-(4-cyanophenyl)-3-[1-(7H-pyrrolo[2,3-d]pyrimidin-4-yl)-4-piperidyl]urea] | < 10 µM |
| COc1ccc(NC(=O)NC2CCN(c3ncnc4[nH]ccc34)CC2)cc1OC [P-0521, 1-(3,4-dimethoxyphenyl)-3-[1-(7H-pyrrolo[2,3-d]pyrimidin-4-yl)-4-piperidyl]urea] | < 10 µM |
| O=C(NC(=O)c1ccccc1)NC1CCN(c2ncnc3[nH]ccc23)CC1 [P-0522, N-[[1-(7H-pyrrolo[2,3-d]pyrimidin-4-yl)-4-piperidyl]carbamoyl]benzamide] | < 10 µM |

| Structure (SMILES) | GI50 |
| --- | --- |
| O=C(Nc1ccc(F)c(F)c1)NC1CCN(c2ncnc3[nH]ccc23)CC1 [P-0523, 1-(3,4-difluorophenyl)-3-[1-(7H-pyrrolo[2,3-d]pyrimidin-4-yl)-4-piperidyl]urea] | < 10 µM |
| O=C(Nc1ccc(F)cc1)NC1CCN(c2ncnc3[nH]ccc23)CC1 [P-0524, 1-(4-fluorophenyl)-3-[1-(7H-pyrrolo[2,3-d]pyrimidin-4-yl)-4-piperidyl]urea] | < 10 µM |
| CCc1ccc(S(=O)(=O)NC2CCN(c3ncnc4[nH]ccc34)CC2)cc1 [P-0525, 4-ethyl-N-[1-(7H-pyrrolo[2,3-d]pyrimidin-4-yl)-4-piperidyl]benzenesulfonamide] | < 10 µM |
| O=C(NC1CCCC1)NC1CCN(c2ncnc3[nH]ccc23)CC1 [P-0526, 1-cyclopentyl-3-[1-(7H-pyrrolo[2,3-d]pyrimidin-4-yl)-4-piperidyl]urea] | < 10 µM |
| CCCC(=O)NC1CCN(c2ncnc3[nH]ccc23)CC1 [P-0527, N-[1-(7H-pyrrolo[2,3-d]pyrimidin-4-yl)-4-piperidyl]butanamide] | < 10 µM |
| O=C(NC1CCN(c2ncnc3[nH]ccc23)CC1)C1CCCCC1 [P-0528, N-[1-(7H-pyrrolo[2,3-d]pyrimidin-4-yl)-4-piperidyl]cyclohexanecarboxamide] | < 10 µM |
| O=C(NC1CCN(c2ncnc3[nH]ccc23)CC1)C1CCCC1 [P-0529, N-[1-(7H-pyrrolo[2,3-d]pyrimidin-4-yl)-4-piperidyl]cyclopentanecarboxamide] | < 10 µM |
| CCc1ccc(C(=O)NC2CCN(c3ncnc4[nH]ccc34)CC2)cc1 [P-0530, 4-ethyl-N-[1-(7H-pyrrolo[2,3-d]pyrimidin-4-yl)-4-piperidyl]benzamide] | < 10 µM |
| CCCS(=O)(=O)NC1CCN(c2ncnc3[nH]ccc23)CC1 [P-0532, N-[1-(7H-pyrrolo[2,3-d]pyrimidin-4-yl)-4-piperidyl]propane-1-sulfonamide] | < 10 µM |
| CCOc1ccc(NC(=O)NC2CCN(c3ncnc4[nH]ccc34)CC2)cc1 [P-0534, 1-(4-ethoxyphenyl)-3-[1-(7H-pyrrolo[2,3-d]pyrimidin-4-yl)-4-piperidyl]urea] | < 10 µM |
| CCc1ccc(NC(=O)NC2CCN(c3ncnc4[nH]ccc34)CC2)cc1 [P-0535, 1-(4-ethylphenyl)-3-[1-(7H-pyrrolo[2,3-d]pyrimidin-4-yl)-4-piperidyl]urea] | < 10 µM |
| CCCNC(=O)NC1CCN(c2ncnc3[nH]ccc23)CC1 [P-0536, 1-propyl-3-[1-(7H-pyrrolo[2,3-d]pyrimidin-4-yl)-4-piperidyl]urea] | < 10 µM |
| O=C(NC1CCCCC1)NC1CCN(c2ncnc3[nH]ccc23)CC1 [P-0537, 1-cyclohexyl-3-[1-(7H-pyrrolo[2,3-d]pyrimidin-4-yl)-4-piperidyl]urea] | < 10 µM |
| O=S(=O)(NC1CCN(c2ncnc3[nH]ccc23)CC1)c1cc(F)ccc1F [P-0539, 2,5-difluoro-N-[1-(7H-pyrrolo[2,3-d]pyrimidin-4-yl)-4-piperidyl]benzenesulfonamide] | < 10 µM |
| COc1ccc(S(=O)(=O)NC2CCN(c3ncnc4[nH]ccc34)CC2)cc1 [P-0540, 4-methoxy-N-[1-(7H-pyrrolo[2,3-d]pyrimidin-4-yl)-4-piperidyl]benzenesulfonamide] | < 10 µM |
| NC1CCN(c2ncnc3[nH]ccc23)CC1 [P-0541, 1-(7H-pyrrolo[2,3-d]pyrimidin-4-yl)piperidin-4-amine] | < 10 µM |
| COc1ccc(C(=O)NC2CCN(c3ncnc4[nH]ccc34)CC2)cc1 [P-0542, 4-methoxy-N-[1-(7H-pyrrolo[2,3-d]pyrimidin-4-yl)-4-piperidyl]benzamide] | < 10 µM |
| COc1ccc(NC(=O)NC2CCN(c3ncnc4[nH]ccc34)CC2)cc1 [P-0543, 1-(4-methoxyphenyl)-3-[1-(7H-pyrrolo[2,3-d]pyrimidin-4-yl)-4-piperidyl]urea] | < 10 µM |
| O=C(Nc1ccc(F)cc1)N1CC2CCC1CN2c1ncnc2cc(-c3ccc(F)cc3)sc12 (stereo not shown) [P-0546, N-(4-fluorophenyl)-5-[6-(4-fluorophenyl)thieno[3,2-d]pyrimidin-4-yl]-2,5-diazabicyclo[2.2.2]octane-2-carboxamide] | < 10 µM |
| COc1cccc(CNC(=O)N2CC3CCC2CN3c2ncnc3cc(-c4ccc(F)cc4)sc23)c1 (stereo not shown) [P-0547, 5-[6-(4-fluorophenyl)thieno[3,2-d]pyrimidin-4-yl]-N-[(3-methoxyphenyl)methyl]-2,5-diazabicyclo[2.2.2]octane-2-carboxamide] | < 10 µM |
| COc1cccc([C@H](C)NC(=O)N2CCN(c3ncnc4cc(N5CCOCC5)sc34)CC2)c1 [P-0548, N-[(1S)-1-(3-methoxyphenyl)ethyl]-4-(6-morpholinothieno[3,2-d]pyrimidin-4-yl)piperazine-1-carboxamide] | < 10 µM |
